# Some of the results follow.
# Columns and labels:
# Assay in all cases: glycan array binding signal (z-score within array); higher = stronger binding
# Settings in all cases: glycan notation: IUPAC condensed, linker removed
# Fuc(a1-2)Gal = biological target: Fuc(a1-2)Gal
# Outline: (§1)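 From the Consortium for Functional Glycomics database, 3228 arrays were curated, keeping only those whose protein sequence was available. Binding is given as a within-array Z-score averaged across arrays sharing a protein sequence and across linkers. Negative Z-scores can be read as non-binding.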
# Fuc(a1-2)Gal(b1-3)GalNAc = biological target: Fuc(a1-2)Gal(b1-3)GalNAc
# Outline: as §1
# [1] = biological target: Fuc(a1-2)Gal(b1-3)GalNAc(a1-3)[Fuc(a1-2)]Gal(b1-4)Glc
# Outline: as §1
# [2] = biological target: Fuc(a1-2)Gal(b1-3)GalNAc(a1-3)[Fuc(a1-2)]Gal(b1-4)GlcNAc
# Outline: as §1
# [3] = biological target: Fuc(a1-2)Gal(b1-3)GalNAc(b1-3)Gal
# Outline: as §1
# [4] = biological target: Fuc(a1-2)Gal(b1-3)GalNAc(b1-3)Gal(a1-4)Gal(b1-4)Glc
# Outline: as §1
# [5] = biological target: Fuc(a1-2)Gal(b1-3)GalNAc(b1-4)[Neu5Ac(a2-3)]Gal(b1-4)Glc
# Outline: as §1
# Fuc(a1-2)Gal(b1-3)GlcNAc = biological target: Fuc(a1-2)Gal(b1-3)GlcNAc
# Outline: as §1
# [6] = biological target: Fuc(a1-2)Gal(b1-3)GlcNAc(b1-2)Man(a1-3)[Fuc(a1-2)Gal(b1-3)GlcNAc(b1-2)Man(a1-6)]Man(b1-4)GlcNAc(b1-4)GlcNAc
# Outline: as §1
# [7] = biological target: Fuc(a1-2)Gal(b1-3)GlcNAc(b1-2)Man(a1-3)[Fuc(a1-2)Gal(b1-3)GlcNAc(b1-2)Man(a1-6)]Man(b1-4)GlcNAc(b1-4)[Fuc(a1-6)]GlcNAc
# Outline: as §1
# [8] = biological target: Fuc(a1-2)Gal(b1-3)GlcNAc(b1-3)Gal(b1-4)Glc
# Outline: as §1
# [9] = biological target: Fuc(a1-2)Gal(b1-3)GlcNAc(b1-3)GalNAc
# Outline: as §1
# [10] = biological target: Fuc(a1-2)Gal(b1-3)GlcNAc(b1-3)[Fuc(a1-2)Gal(b1-3)GlcNAc(b1-6)]GalNAc
# Outline: as §1
# [11] = biological target: Fuc(a1-2)Gal(b1-3)GlcNAc(b1-3)[Fuc(a1-3)[Gal(b1-4)]GlcNAc(b1-6)]Gal(b1-4)Glc
# Outline: as §1
# [12] = biological target: Fuc(a1-2)Gal(b1-3)GlcNAc(b1-3)[Gal(b1-4)GlcNAc(b1-6)]Gal(b1-4)Glc
# Outline: as §1
# [13] = biological target: Fuc(a1-2)Gal(b1-3)GlcNAc(b1-3)[Neu5Ac(a2-6)Gal(b1-4)GlcNAc(b1-6)]Gal(b1-4)Glc
# Outline: as §1
# [14] = biological target: Fuc(a1-2)Gal(b1-3)GlcNAc6S
# Outline: as §1
# [15] = biological target: Fuc(a1-2)Gal(b1-3)[Fuc(a1-4)]GlcNAc
# Outline: as §1
# [16] = biological target: Fuc(a1-2)Gal(b1-3)[Fuc(a1-4)]GlcNAc(b1-2)Man(a1-3)[Fuc(a1-2)Gal(b1-3)[Fuc(a1-4)]GlcNAc(b1-2)Man(a1-3)]Man(b1-4)GlcNAc(b1-4)GlcNAc
# Outline: as §1
# [17] = biological target: Fuc(a1-2)Gal(b1-3)[Fuc(a1-4)]GlcNAc(b1-2)Man(a1-3)[Fuc(a1-2)Gal(b1-3)[Fuc(a1-4)]GlcNAc(b1-2)Man(a1-6)]Man(b1-4)GlcNAc(b1-4)GlcNAc
# Outline: as §1
# [18] = biological target: Fuc(a1-2)Gal(b1-3)[Fuc(a1-4)]GlcNAc(b1-2)Man(a1-3)[Fuc(a1-2)Gal(b1-3)[Fuc(a1-4)]GlcNAc(b1-2)Man(a1-6)]Man(b1-4)GlcNAc(b1-4)[Fuc(a1-6)]GlcNAc(b1-4)[Fuc(a1-6)]GlcNAc
# Outline: as §1
# [19] = biological target: Fuc(a1-2)Gal(b1-3)[Fuc(a1-4)]GlcNAc(b1-3)[Fuc(a1-3)[Gal(b1-4)]GlcNAc(b1-6)]Gal(b1-4)Glc
# Outline: as §1
# [20] = biological target: Fuc(a1-2)Gal(b1-3)[Fuc(a1-4)]GlcNAc(b1-3)[Gal(b1-4)GlcNAc(b1-6)]Gal(b1-4)Glc
# Outline: as §1
# [21] = biological target: Fuc(a1-2)Gal(b1-4)Fuc(a1-3)]GlcNAc(b1-2)Man(a1-3)[Fuc(a1-2)Gal(b1-4)[Fuc(a1-3)]GlcNAc(b1-2)Man(a1-6)]Man(b1-4)GlcNAc(b1-4)GlcNAc
# Outline: as §1
# Fuc(a1-2)Gal(b1-4)Glc = biological target: Fuc(a1-2)Gal(b1-4)Glc
# Outline: as §1
# Fuc(a1-2)Gal(b1-4)Glc6S = biological target: Fuc(a1-2)Gal(b1-4)Glc6S
# Outline: as §1
# Fuc(a1-2)Gal(b1-4)GlcNAc = biological target: Fuc(a1-2)Gal(b1-4)GlcNAc
# Outline: as §1
# [22] = biological target: Fuc(a1-2)Gal(b1-4)GlcNAc(b1-2)Man
# Outline: as §1
# [23] = biological target: Fuc(a1-2)Gal(b1-4)GlcNAc(b1-2)Man(a1-3)[Fuc(a1-2)Gal(b1-4)GlcNAc(b1-2)Man(a1-6)]Man(b1-4)GlcNAc(b1-4)GlcNAc
# Outline: as §1
# [24] = biological target: Fuc(a1-2)Gal(b1-4)GlcNAc(b1-2)Man(a1-3)[Fuc(a1-2)Gal(b1-4)GlcNAc(b1-2)Man(a1-6)]Man(b1-4)GlcNAc(b1-4)[Fuc(a1-6)]GlcNAc
# Outline: as §1
binder,measurement,setting,value
KISKRILTGKK [NK11 (Sus scrofa)],glycan array binding signal (z-score),Fuc(a1-2)Gal,-0.368
same,glycan array binding signal (z-score),Fuc(a1-2)Gal(b1-3)GalNAc,-0.148
same,glycan array binding signal (z-score),[1],-0.498
same,glycan array binding signal (z-score),[2],-0.539
same,glycan array binding signal (z-score),[3],-0.392
same,glycan array binding signal (z-score),[4],0.084
same,glycan array binding signal (z-score),[5],0.654
same,glycan array binding signal (z-score),Fuc(a1-2)Gal(b1-3)GlcNAc,-0.549
same,glycan array binding signal (z-score),[6],-0.957
same,glycan array binding signal (z-score),[7],-0.504
same,glycan array binding signal (z-score),[8],0.203
same,glycan array binding signal (z-score),[9],-0.367
same,glycan array binding signal (z-score),[10],-1.15
same,glycan array binding signal (z-score),[11],-0.41
same,glycan array binding signal (z-score),[12],-0.36
same,glycan array binding signal (z-score),[13],-0.466
same,glycan array binding signal (z-score),[14],-0.416
same,glycan array binding signal (z-score),[15],-0.166
same,glycan array binding signal (z-score),[16],-0.214
same,glycan array binding signal (z-score),[17],0.156
same,glycan array binding signal (z-score),[18],0.503
same,glycan array binding signal (z-score),[19],-0.004
same,glycan array binding signal (z-score),[20],-0.767
same,glycan array binding signal (z-score),[21],0.774
same,glycan array binding signal (z-score),Fuc(a1-2)Gal(b1-4)Glc,-0.492
same,glycan array binding signal (z-score),Fuc(a1-2)Gal(b1-4)Glc6S,-0.124
same,glycan array binding signal (z-score),Fuc(a1-2)Gal(b1-4)GlcNAc,-0.676
same,glycan array binding signal (z-score),[22],0.05
same,glycan array binding signal (z-score),[23],-0.741
same,glycan array binding signal (z-score),[24],-0.353

# Part of the list above in another layout.
binder	measurement	setting	value
KISKRILTGKK [NK11 (Sus scrofa)]	glycan array binding signal (z-score)	[7]	-0.504
same	glycan array binding signal (z-score)	[8]	0.203
